For part of these data: At least one structure is not confirmed: it was looked up by name or label, or the drawing left a doubt. Some of these results come from one statement about several compounds together.
Key:
[1] = tested on: cell surface thrombomodulin (HUVEC); assay: Flow cytometry, cell surface thrombomodulin antigen (CD-141); type: cell-based, human; details: 10 mM statin, 24 hours
[2] = tested on: thrombomodulin activity (HCAEC); assay: Protein C activation assay (thrombomodulin activity); type: cell-based, human; details: 10 mM statin, 24 hours
[3] = tested on: thrombomodulin activity (HUVEC); assay: as above; type: cell-based, human; details: 10 mM statin, 24 hours
[4] = tested on: cell surface thrombomodulin (HCAEC); assay: Flow cytometry, cell surface thrombomodulin antigen (CD-141); type: cell-based, human; details: 10 mM statin, 24 hours
[5] = tested on: thrombomodulin activity (human intestinal microvascular cells); assay: Protein C activation assay (thrombomodulin activity); type: cell-based
Protocol: (§1) TM activity was assessed by measuring protein C activation in early confluent cells grown on 96-well plates. Cells were washed twice with PBS and incubated with […] protein C and 1 nM thrombin (60 min at 37° C., […] total volume) to generate activated protein C. Excess thrombin was quenched with hirudin ([…], 0.2 ATu/ml). The amount of activated protein C generated was measured by monitoring hydrolysis of chromogenic substrate S-2366 at 5-min intervals at 405 nm in a microplate reader (Bio-TEK Instruments, Winooski, Vt.). The results were expressed as mean OD slope values (DOD/Dt).

[6] = tested on: cell surface thrombomodulin (EA.hy926 endothelial cells); assay: Flow cytometry, cell surface thrombomodulin antigen (CD-141); type: cell-based, human; details: 10 mM statin, 24 hours
Protocol: Cells were examined for surface antigen expression by flow cytometry, using specific phycoerythrin-conjugated mouse antibodies against human TM (CD-141), a general endothelial cell marker (PECAM [CD-31]), and markers of stimulated endothelial cells (tissue factor [CD-142] and P-selectin [CD-62]) (BD Biosciences, San Diego, Calif.). Cell viability was assessed using 7-amino-actinomycin D (7-AAD). Phycoerythrin-conjugated mouse IgG was used as negative control. A total of 1×10^5 cells were used for each analysis. Cells were harvested, stained with appropriate phycoerythin-conjugated antibodies, fixed in 1% paraformaldehyde, and analysis was performed using a FACSCalibur Flow Cytometer (BD Immunocytometry System, San Jose, Calif.), QuantiBRITE-PE beads (BD Biosciences, San Diego, Calif.), and CELLQuest software. Antigen levels were expressed as antibody binding sites (ABS).

[7] = tested on: thrombomodulin activity (EA.hy926 endothelial cells); assay: Protein C activation assay (thrombomodulin activity); type: cell-based, human; set-up: concentration dependence of cell surface thrombomodulin activity: dose or concentration left out as unconfirmed; details: 24 hours
Protocol: as §1
The functional activity of thrombomodulin was assessed by measuring the ability of the endothelial cells to activate protein C. All samples and reagents were diluted in APC assay diluent (20 mM Tri-HCl, pH7.4, 100 mM NaCl, 2.5 mM CaCl2, 0.5% BSA). Exponentially growing EA.hy 926 endothelial cells were seeded into 96 well plates in triplicate (2×10^4 per well). Cells were allowed to attach and grow overnight, and then washed twice with PBS and incubated for 60 min in 60 μl total volume at 37° C. with 0.5 μM protein C and 1 nM thrombin to generate activated protein C. […] Generation of active protein C was determined by using a chromogenic substrate S-2366 and absorbance at 405 nm was measured by using a Vmax kinetic microplate reader.

Structure (SMILES) | increase in cell surface TM antigen [1] | increase in TM activity [2] | increase in TM activity [3] | increase in cell surface TM antigen [4] | endothelial thrombomodulin activity (protein C activation assay) [5] | increase in cell surface TM antigen [6] | increase in TM activity (protein C activation) ([7]; 10 mM statin) | concentration dependence of cell surface thrombomodulin activity ([7]; different concentrations)
CC(C)c1c(C(=O)Nc2ccccc2)c(-c2ccccc2)c(-c2ccc(F)cc2)n1CC[C@@H](O)C[C@@H](O)CC(=O)O [atorvastatin] | 2- to 3 fold | 2- to 3 fold | 2- to 3 fold | 2- to 3 fold |  |  |  | 
CCC(C)(C)C(=O)O[C@H]1C[C@@H](C)C=C2C=C[C@H](C)[C@H](CC[C@@H]3C[C@@H](O)CC(=O)O3)[C@H]21 [simvastatin] | 2- to 3 fold | 2- to 3 fold | 2- to 3 fold | 2- to 3 fold | significantly affected | 2- to 3 fold | 2- to 3 fold | increases endothelial cell thrombomodulin activity in a dose-dependent manner

Source: patent publication US20100204254A1, “Use of statins in the prevention and treatment of radiation injury and other disorders associated with reduced endothelial thrombomodulin” (The University of Arkansas for Medical Sciences, priority 2002, published 2010)
